One sequence from PMC533864 can be followed below.

Protein sequences, listed by entry. Tags and fused reporters are not part of them. Residues count along the entry.
UniProt P10243, 1-187: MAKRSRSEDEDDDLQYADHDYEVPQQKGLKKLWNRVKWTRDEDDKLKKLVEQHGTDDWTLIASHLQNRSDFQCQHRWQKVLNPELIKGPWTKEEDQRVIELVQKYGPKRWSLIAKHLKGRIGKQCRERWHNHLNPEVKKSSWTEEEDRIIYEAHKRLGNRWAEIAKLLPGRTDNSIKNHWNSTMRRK
UniProt P10244, 1-183: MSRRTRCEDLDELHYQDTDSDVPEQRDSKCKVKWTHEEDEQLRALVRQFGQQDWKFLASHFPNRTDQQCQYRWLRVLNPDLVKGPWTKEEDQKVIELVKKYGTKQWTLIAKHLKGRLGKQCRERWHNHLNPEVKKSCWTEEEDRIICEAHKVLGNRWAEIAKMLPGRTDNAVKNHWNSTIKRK

The target of data set [1] is A-Myb NR1R2R3 (Homo sapiens) (UniProt P10243). As to the kind of experiment: EMSA. The note with it: 20 mM Tris-HCl pH 8.0, 0.1 mM EDTA, 10% glycerol, 0.1 mM DTT, 0.005% Triton X-100, 50 mM NaCl, RNAguard 6-20 U, 20 uL, 25 C, 15 min; recombinant protein; residues 1-187; label: 32P. A general note: A gel shift assay detects complexes by their altered migration in electrophoresis.

Data set [2] addresses B-Myb NR1R2R3 (UniProt P10244). The data set can be described thus: EMSA. The note with it: 20 mM Tris-HCl pH 8.0, 0.1 mM EDTA, 10% glycerol, 0.1 mM DTT, 0.005% Triton X-100, 50 mM NaCl, RNAguard 6-20 U, 20 uL, 25 C, 15 min; recombinant protein; residues 1-183; label: 32P.

The exact form of at least one protein or probe is not confirmed. At least one verdict was read from the data and is not stated in words by the source.

Turning to “GCATTATAACGGTTTTTTAGCGC (double strand) [MRE probe (mim-1 promoter)]”, the binding result in data set [1] and in data set [2] was “binds” each time.
